PubChem BioAssay AID1259308 – NCATS, 2017
Here is a random part of about 59,000 reagents. Of all reagents, about 1,510 (2.6%) got an active call. 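Calls use total luciferase alone and ignore viability, so some active siRNAs may act by altering cell number.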 The numbers tell different reagents against one gene apart. Further read-outs or replicates are left out here. Reagent sequences are not shown.

Purpose: 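Candidate targets for better recombinant protein yield in mammalian cells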 (primary screen)
Cell system: human HEK293 embryonic kidney cells stably expressing firefly luciferase (HEK-CMV-Luc2-Hygro)
Reagents: single siRNA against human genes, 0.8 pmol siRNA per well
Time to read-out: 72 h
Measured: 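Luciferase light (ONE-Glo) measured on one replicate plate set and viability (CellTiter-Glo) on the other, scaled to a negative control siRNA, with robust z-scores and luciferase per cell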
Reading the numbers: total luciferase, z-score and total luciferase, % of control: higher = more reporter protein produced
Active means: 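An siRNA counts as active if its total luciferase robust z-score exceeds 3; genes with two or more such siRNAs out of three were retested with fresh siRNAs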
Calls: active = raised luciferase; inactive = no rise

| target gene | reagent | total luciferase, z-score | total luciferase, % of control | call |
| --- | --- | --- | --- | --- |
| ANAPC1P2 | 1 | -1.4 | 54 | inactive |
| ANAPC1P2 | 2 | -0.311 | 75.7 | inactive |
| ANAPC1P2 | 3 | -1.85 | 45 | inactive |
| UBQLN1 | 1 | 0.755 | 96.9 | inactive |
| UBQLN1 | 2 | 0.303 | 87.9 | inactive |
| UBQLN1 | 3 | -0.0987 | 79.9 | inactive |
| GOLT1B | 1 | -0.324 | 75.4 | inactive |
| GOLT1B | 2 | 1.34 | 108 | inactive |
| GOLT1B | 3 | -0.262 | 76.7 | inactive |
| YPEL5 | 1 | -2.84 | 25.5 | inactive |
| YPEL5 | 2 | 0.531 | 92.4 | inactive |
| YPEL5 | 3 | 0.38 | 89.4 | inactive |
| STAG2 | 1 | -0.0818 | 80.3 | inactive |
| STAG2 | 2 | -0.21 | 77.7 | inactive |
| STAG2 | 3 | -0.13 | 79.3 | inactive |
| ARGLU1 | 1 | 1.94 | 120 | inactive |
| ARGLU1 | 2 | -1.44 | 53.2 | inactive |
| ARGLU1 | 3 | 1.9 | 120 | inactive |
| PRDX4 | 1 | -1.23 | 57.5 | inactive |
| PRDX4 | 2 | 0.00727 | 82 | inactive |
| PRDX4 | 3 | 0.185 | 85.6 | inactive |
| GPR142 | 1 | -0.995 | 62.1 | inactive |
| GPR142 | 2 | 1.52 | 112 | inactive |
| GPR142 | 3 | 0.574 | 93.3 | inactive |

Already shown: entries from further up.
| target gene | reagent | total luciferase, z-score | total luciferase, % of control | call |
| --- | --- | --- | --- | --- |
| YPEL5 | 1 | -2.84 | 25.5 | inactive |
| YPEL5 | 2 | 0.531 | 92.4 | inactive |
| YPEL5 | 3 | 0.38 | 89.4 | inactive |
| STAG2 | 1 | -0.0818 | 80.3 | inactive |
| STAG2 | 2 | -0.21 | 77.7 | inactive |
| STAG2 | 3 | -0.13 | 79.3 | inactive |

The list goes on:
| target gene | reagent | total luciferase, z-score | total luciferase, % of control | call |
| --- | --- | --- | --- | --- |
| FAXC | 1 | -2.16 | 39 | inactive |
| FAXC | 2 | 0.00979 | 82.1 | inactive |
| FAXC | 3 | -0.434 | 73.3 | inactive |
| C3orf38 | 1 | -0.248 | 77 | inactive |
| C3orf38 | 2 | -0.967 | 62.7 | inactive |
| C3orf38 | 3 | 3.38 | 149 | active |
| LOC402279 | 1 | 1.61 | 114 | inactive |
| LOC402279 | 2 | 1.44 | 110 | inactive |
| LOC402279 | 3 | 0.681 | 95.4 | inactive |
| SEC23B | 1 | 1.33 | 108 | inactive |
| SEC23B | 2 | -0.435 | 73.2 | inactive |
| SEC23B | 3 | 0.853 | 98.9 | inactive |
| SLC45A4 | 1 | -0.0742 | 80.4 | inactive |
| SLC45A4 | 2 | 0.255 | 87 | inactive |
| SLC45A4 | 3 | 4.75 | 176 | active |
